PubChem BioAssay AID1224831 – NIAID | 2016

- Purpose: 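Genes that support or restrain LPS-induced TNF-alpha reporter activity in macrophage-like cells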 (follow-up of hits)
- Cells: human THP-1 B5 monocytic leukaemia cells carrying a TNF promoter luciferase reporter, made macrophage-like with PMA
- Reagents: single siRNA against human genes, 50 nM
- Timing: about 68 h of knock-down, then 4 h LPS
- Conditions: LPS (Salmonella minnesota, TLR-grade) at 10 ng/ml for 4 h; PMA 5 ng/ml present during knock-down
- Measurement: 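Firefly to renilla luciferase ratio of a TNF promoter reporter after 4 h LPS, scaled to plate median, turned into robust z-score, averaged over replicates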
- Direction: TNF reporter z-score: higher = stronger LPS-induced TNF reporter signal
- Active means: 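Two-sided call: reduced or raised TNF reporter signal counts as active once mean z reaches about -1 or below, or about 1.5 or above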
- Calls: active = changed TNF reporter (either direction); inactive = little change
Here is an unselected part of about 3,500 deposited reagents. 731 of all reagents (21%) were called active. 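Active means either lowered or raised reporter signal; the gene-median score did not drive the per-siRNA calls.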 The numbers tell different reagents against one gene apart. Further read-outs or replicates are left out here. No sequences are given here.

TNF reporter z-score, replicate mean, by gene symbol and reagent
BRSK2 (BR serine/threonine kinase 2): #1 1.14 inactive; #2 -0.03 inactive; #3 1.43 inactive; #4 -0.34 inactive; #5 0.48 inactive; #6 1.56 active
SLC38A3: #1 0.46 inactive; #2 0.78 inactive; #3 1.91 active; #4 -0.78 inactive; #5 -0.25 inactive; #6 -0.43 inactive
UBXN2A (UBX domain protein 2A): #1 0.07 inactive; #2 -0.24 inactive; #3 1.51 active; #4 0.44 inactive; #5 0.35 inactive; #6 0.7 inactive
TICRR (TOPBP1 interacting checkpoint and replication regulator): #1 -0.46 inactive; #2 -0.06 inactive; #3 1.36 inactive; #4 -0.03 inactive; #5 1.72 active; #6 -0.25 inactive
LRRC73 (leucine rich repeat containing 73): #1 -0.96 inactive; #2 -2.61 active; #3 1.61 active; #4 -0.87 inactive; #5 -0.74 inactive; #6 0.92 inactive
PPP2R5E (protein phosphatase 2 regulatory subunit B'epsilon): #1 0.62 inactive; #2 -0.79 inactive; #3 -0.22 inactive; #4 0.2 inactive; #5 1.4 inactive; #6 1.77 active
ENDOV (endonuclease V): #1 0.3 inactive; #2 -0.68 inactive; #3 -0.48 inactive; #4 -0.59 inactive; #5 0.21 inactive; #6 0.2 inactive
SLC15A2: #1 -0.2 inactive; #2 -0.27 inactive; #3 1.12 inactive; #4 -0.64 inactive; #5 -1.43 active; #6 -0.03 inactive
LCK (LCK proto-oncogene, Src family tyrosine kinase): #1 -0.12 inactive; #2 0.68 inactive; #3 -0.05 inactive; #4 0.26 inactive; #5 1.15 inactive; #6 -1.55 active
VPREB3 (V-set pre-B cell surrogate light chain 3): #1 0.45 inactive; #2 -0.54 inactive; #3 -0.8 inactive; #4 0.88 inactive; #5 1.11 inactive; #6 0.19 inactive
POSTN (periostin): #1 -0.18 inactive; #2 0.03 inactive; #3 0.93 inactive; #4 13.8 active; #5 0.92 inactive; #6 -0.48 inactive
B3GLCT (beta 3-glucosyltransferase): #1 -0.51 inactive; #2 -0.79 inactive; #3 0.24 inactive; #4 -0.67 inactive; #5 -1.1 active; #6 -0.12 inactive
POFUT1 (protein O-fucosyltransferase 1): #1 -0.99 inactive; #2 0.47 inactive; #3 0.25 inactive; #4 0.78 inactive; #5 0.34 inactive; #6 0.93 inactive
IPMK (inositol polyphosphate multikinase): #1 -0.53 inactive; #2 -0.71 inactive; #3 1.27 inactive; #4 -0.18 inactive; #5 0.2 inactive; #6 0.01 inactive

Sorted by “TNF reporter z-score, replicate mean” (highest first): some entries from above.
gene symbol	reagent	TNF reporter z-score, replicate mean	outcome
ENDOV (endonuclease V)	5	0.21	inactive
ENDOV (endonuclease V)	6	0.2	inactive
SLC15A2	1	-0.2	inactive
ENDOV (endonuclease V)	4	-0.59	inactive
